Reference: the Biogen ADME set (Fang et al. 2023)

intrinsic clearance, human liver microsomes [mL/min/kg]	intrinsic clearance, rat liver microsomes [mL/min/kg]	MDR1-MDCK efflux ratio	Structure (SMILES)
27.9	198	–	Cc1ccc(-c2ccc(F)cc2COc2ccc(CCC(=O)O)cc2)cc1
93.3	551	115	Cc1n[nH]c2c1[C@H](c1ccccc1)C1=C(CC(C)(C)CC1=O)N2
